Binding data for one molecule are collected here from PMC10834983.

This assay concerns the target Cyclin-dependent kinase 5 (UniProt Q00535). As to the kind of experiment: co-IP; tissues or cells lysed in RIPA buffer with protease and phosphatase inhibitors; incubated with an antibody against Cdk5 and protein A/G Sepharose; Drosha detected by Western blot; source of the lysate not stated.

No constants are given. Whether binding was seen depends on the method and setting. Binding seen in cells or lysates may run through a third protein. Some results given as binding are weak or reduced against the parent protein; the word gives no strength.

B1: Drosha (enzyme, UniProt Q9NRR4 1-1374)
chain: MMQGNTCHRMSFHPGRGCPRGRGGHGARPSAPSFRPQNLRLLHPQQPPVQYQYEPPSAPSTTFSNSPAPNFLPPRPDFVPFPPPMPPSAQGPLPPCPIRPPFPNHQMRHPFPVPPCFPPMPPPMPCPNNPPVPGAPPGQGTFPFMMPPPSMPHPPPPPVMPQQVNYQYPPGYSHHNFPPPSFNSFQNNPSSFLPSANNSSSPHFRHLPPYPLPKAPSERRSPERLKHYDDHRHRDHSHGRGERHRSLDRRERGRSPDRRRQDSRYRSDYDRGRTPSRHRSYERSRERERERHRHRDNRRSPSLERSYKKEYKRSGRSYGLSVVPEPAGCTPELPGEIIKNTDSWAPPLEIVNHRSPSREKKRARWEEEKDRWSDNQSSGKDKNYTSIKEKEPEETMPDKNEEEEEELLKPVWIRCTHSENYYSSDPMDQVGDSTVVGTSRLRDLYDKFEEELGSRQEKAKAARPPWEPPKTKLDEDLESSSESECESDEDSTCSSSSDSEVFDVIAEIKRKKAHPDRLHDELWYNDPGQMNDGPLCKCSAKARRTGIRHSIYPGEEAIKPCRPMTNNAGRLFHYRITVSPPTNFLTDRPTVIEYDDHEYIFEGFSMFAHAPLTNIPLCKVIRFNIDYTIHFIEEMMPENFCVKGLELFSLFLFRDILELYDWNLKGPLFEDSPPCCPRFHFMPRFVRFLPDGGKEVLSMHQILLYLLRCSKALVPEEEIANMLQWEELEWQKYAEECKGMIVTNPGTKPSSVRIDQLDREQFNPDVITFPIIVHFGIRPAQLSYAGDPQYQKLWKSYVKLRHLLANSPKVKQTDKQKLAQREEALQKIRQKNTMRREVTVELSSQGFWKTGIRSDVCQHAMMLPVLTHHIRYHQCLMHLDKLIGYTFQDRCLLQLAMTHPSHHLNFGMNPDHARNSLSNCGIRQPKYGDRKVHHMHMRKKGINTLINIMSRLGQDDPTPSRINHNERLEFLGDAVVEFLTSVHLYYLFPSLEEGGLATYRTAIVQNQHLAMLAKKLELDRFMLYAHGPDLCRESDLRHAMANCFEALIGAVYLEGSLEEAKQLFGRLLFNDPDLREVWLNYPLHPLQLQEPNTDRQLIETSPVLQKLTEFEEAIGVIFTHVRLLARAFTLRTVGFNHLTLGHNQRMEFLGDSIMQLVATEYLFIHFPDHHEGHLTLLRSSLVNNRTQAKVAEELGMQEYAITNDKTKRPVALRTKTLADLLESFIAALYIDKDLEYVHTFMNVCFFPRLKEFILNQDWNDPKSQLQQCCLTLRTEGKEPDIPLYKTLQTVGPSHARTYTVAVYFKGERIGCGKGPSIQQAEMGAAMDALEKYNFPQMAHQKRFIERKYRQELKEMRWEREHQEREPDETEDIKK
As to B1, the binding entry was “binds”.
